# Reference: PubChem BioAssay AID540256 (National Center for Advancing Translational Sciences (NCATS), 2011)
# Out of some 300,000 compounds screened, about 3,700 (1.2%) were called active. The inconclusive results got no clear call from the source; some entries with a clear call stand among them for comparison. Calls come from the whole dose curve; tested in HEK293 cells. Where the call is inconclusive, the potency comes from a doubtful curve fit.
# Assay: qHTS for Inhibitors of binding or entry into cells for Lassa Virus; note: nearly all actives have a fitted effect of over 50% in size
# Conditions: Lassa virus pseudotype entry inhibition, cell reporter; series mostly up to 37.9 µM
# Potency is the fitted concentration of half-maximal effect.
row,Compound,Potency
1,O=C1Cc2ccccc2N1c1ccccc1,inactive
2,COc1ccc(NC(=O)C(c2ccccc2)N2CCN(c3ccccn3)CC2)cc1Cl (stereo not given),"inconclusive: 10 µM [inhibitor, partial curve, poor fit]"
3,O=C1Cc2ccccc2C(c2ccc(Cl)cc2)N1 (stereo not given),"inconclusive: 20 µM [inhibitor, partial curve, poor fit]"
4,O=C(Nc1cccc2ncccc12)c1ccc([N+](=O)[O-])o1,"inconclusive: 35.5 µM [inhibitor, single point]"
5,CCN(CC)CC#CC(OC)(c1ccccc1)c1ccccc1,"inconclusive: 35.5 µM [inhibitor, single point]"
6,Cc1cc(O)ccc1Nc1nc(-c2cccnc2)cs1,inactive
7,COc1ccc(OC)c(/C=C/C(=O)N(C)CC(=O)Nc2ccc(N3CCOCC3)cc2)c1,"inconclusive: 6.31 µM [inhibitor, single point]"
8,Cc1c(O)ccc(/C(Cc2ccc3ccccc3n2)=N\O)c1O,"inconclusive: 23.1 µM [inhibitor, single point]"
9,CCOc1ccc(-c2noc(CSc3nnc(Cc4ccccc4)n3-c3cccc(C)c3)n2)cc1,"inconclusive: 1.41 µM [inhibitor, full curve, poor fit]"
10,Cc1nc(CCNC(=O)CC2C(=O)NCCN2CC(C)(C)C)nc2c1CCC2 (stereo not given),inactive
11,CCSc1nnc(-c2ccccc2SC)o1,inactive
12,CC1CCN(C(=O)CCCN2C(=O)c3cccnc3Oc3ccc(Cl)cc32)CC1,"inconclusive: 35.5 µM [inhibitor, single point]"
13,O=C(NC1CCCCCCC1)NC1CCCCC1,"inconclusive: 32.6 µM [inhibitor, single point]"
14,CCC(C)[C@H](NC(=O)Nc1ccc2c(c1)OCCO2)C(=O)OC (stereo not given in full),inactive
15,CCCCOCCCNC(=O)N[C@H](C(=O)OC)C(C)C,inactive
16,Cc1cccc(/C=C2\CCC(=C3SCCCS3)C2=O)c1,"inconclusive: 14.1 µM [inhibitor, partial curve, poor fit]"
17,COc1ccc2[nH]c3nc(SC(C)C)nnc3c2c1,active: 2.24 µM
18,CCOC(=O)C1=C(N)n2c(s/c(=C/c3ccco3)c2=O)=C(C(=O)OC)C1c1ccco1 (stereo not given),"inconclusive: 2.06 µM [inhibitor, single point]"
19,CCOC(=O)c1cnc2ccc(C)cc2c1Nc1ccc(N2CCOCC2)cc1,"inconclusive: 17.8 µM [inhibitor, partial curve, poor fit]"
20,Cc1ccc(OCCNC(=O)CCNS(=O)(=O)c2ccc(C)cc2)cc1,"inconclusive: 1 µM [inhibitor, single point]"
21,Cc1ccc(Oc2ccc(C(=O)NCc3ccncc3)cc2)cc1,active: 8.91 µM
22,COCc1cc(C)nc2sc(C(=O)Nc3cc(C)ccc3F)c(N)c12,"inconclusive: 4.47 µM [activator, full curve, poor fit]"
23,CCOC(=O)C1CCN(C(=O)c2cc3c(=O)n4cccc(C)c4nc3s2)CC1,inactive
24,O=C(COc1ccccc1)Nc1ccc2oc(=O)ccc2c1,inactive

# Copied from above (4 entries):
row,Compound,Potency
6,Cc1cc(O)ccc1Nc1nc(-c2cccnc2)cs1,inactive
7,COc1ccc(OC)c(/C=C/C(=O)N(C)CC(=O)Nc2ccc(N3CCOCC3)cc2)c1,"inconclusive: 6.31 µM [inhibitor, single point]"
8,Cc1c(O)ccc(/C(Cc2ccc3ccccc3n2)=N\O)c1O,"inconclusive: 23.1 µM [inhibitor, single point]"
9,CCOc1ccc(-c2noc(CSc3nnc(Cc4ccccc4)n3-c3cccc(C)c3)n2)cc1,"inconclusive: 1.41 µM [inhibitor, full curve, poor fit]"

# Following part.

row,Compound,Potency
1,COc1cnc(-c2ccccn2)nc1Oc1cccc(Cl)c1,inactive
2,CCOC(=O)C1=C(CNCCc2ccc(Cl)cc2)NC(=O)NC1c1ccc2c(c1)OCO2 (stereo not given),"inconclusive: 35.5 µM [inhibitor, single point]"
3,COc1ccc(S(=O)(=O)NCc2cccnc2)cc1NC(=O)c1ccccc1C,inactive
4,O=C1c2ccccc2-c2nnc(-c3ccc(O)cc3)cc21,"inconclusive: 16.4 µM [inhibitor, single point]"
5,N#Cc1c(NC(=O)C2CC2)sc2c1CCCCC2,"inconclusive: 3.16 µM [activator, partial curve, poor fit]"
6,O=C(Cn1c(=O)nc(-c2ccccc2)c2cc(Cl)ccc21)NCCCc1ccccc1,inactive
7,COc1cc(/C=C/C=C2/CC/C(=C/C=C/c3ccc(O)c(OC)c3)C2=O)ccc1O,"inconclusive: 25.1 µM [inhibitor, single point]"
8,COC(=O)c1ccc(OC)c(Cn2c(=O)n(-c3ccc(C)cc3)c(=O)c3c2cnn3C)c1,inactive
9,CN(Cc1ccccc1)c1nc2c(c(=O)n(C)c(=O)n2C)n1CCCc1ccccc1,active: 12.6 µM
10,CCCc1nc2nc(C)c(NS(=O)(=O)c3ccc4c(c3)CCCC4)c(=O)n2[nH]1,"inconclusive: 5.62 µM [inhibitor, single point]"
11,Cc1ccc(NC(=O)C2CCN(S(=O)(=O)c3ccc(N4CCCC4=O)cc3)CC2)cc1Cl,"inconclusive: 8.91 µM [inhibitor, partial curve, poor fit]"
12,COc1ccc(-n2c(=O)c3sc4ccccc4c3n(Cc3ccccc3)c2=O)cc1,inactive
13,CCn1nc(C)c(C(=O)Nc2cc(Oc3cc(C)cc(C)c3)cc([N+](=O)[O-])c2)c1C,"inconclusive: 22.4 µM [inhibitor, single point]"
14,Cc1ccc2c(CNC3CCC(C)CC3)c(C(=O)O)n(Cc3cccc(F)c3)c2c1 (stereo not given),inactive
15,COc1nc(NCc2cccnc2)nc(OC)n1,inactive
16,CS(=O)(=O)N(CC(=O)N1CCN(Cc2ccc3c(c2)OCO3)CC1)c1ccc2c(c1)OCO2,"inconclusive: 25.9 µM [inhibitor, partial curve, poor fit]"
17,COc1ccc(N2CCN(C(=O)CCCN3C(=O)c4cccc5cccc(c45)C3=O)CC2)cc1,"inconclusive: 32.6 µM [inhibitor, single point]"
18,O=C(CSc1nnnn1-c1cccc2c1CCCC2)N1CCCCC1,"inconclusive: 8.91 µM [inhibitor, full curve, poor fit]"
19,COC(=O)c1cc(CSc2nnc(-c3ccccc3)c(-c3ccccc3)n2)oc1C,"inconclusive: 17.8 µM [inhibitor, single point]"
20,c1coc(-c2nnc(NC3=NCCC3)o2)c1,"inconclusive: 0.794 µM [activator, single point]"
21,Cc1nc(NCCc2ccc(F)cc2)c2nnn(Cc3ccccc3)c2n1,inactive
22,COc1cccc(CN(C(=O)c2cc3ccccc3oc2=O)C2CC2)c1,inactive
23,Cc1ccc(NC(=O)COc2ccc(/C=C3/NC(=O)NC3=O)cc2)cc1,"inconclusive: 3.16 µM [inhibitor, partial curve, poor fit]"
24,COc1ccc(S(=O)(=O)N2c3ccccc3OCC2C(C)(C)C)cc1 (stereo not given),inactive

row,Compound,Potency
1,COc1cccc(CNc2nc3ccccc3n2CCN2CCCCC2)c1OC,"inconclusive: 35.5 µM [inhibitor, single point]"
2,CC1(C)C2CC=C(/C=N/NC(=O)c3ccc(O)cc3)C1C2 (stereo not given),"inconclusive: 8.91 µM [inhibitor, single point]"
3,CCOc1ccc(S(=O)(=O)N(CC(=O)NN=C2CCN(C)CC2)c2ccc(C)cc2)cc1,"inconclusive: 3.16 µM [inhibitor, single point]"
4,Cc1ccc2nc(-c3ccncc3)cc(C(=O)N3CCC4(CC3)OCCO4)c2c1,inactive
5,COc1cc(OC)c(NC(=O)c2cc(S(=O)(=O)N3CCCC3)cn2C)cc1Cl,"inconclusive: 3.55 µM [activator, single point]"
6,COc1ccc(-c2nn3ncccc3c2-c2ccnc(Nc3cccc(C(F)(F)F)c3)n2)cc1,active: 25 µM
7,O=C(COc1ccccc1[N+](=O)[O-])N(Cc1ccccc1)c1ccccn1,"inconclusive: 11.2 µM [inhibitor, partial curve, poor fit]"
8,CN(c1ccccc1)c1ccc(/C=N/N2CCOCC2)cc1,"inconclusive: 22.4 µM [inhibitor, single point]"
9,CC(=O)c1ccc(NC(=O)CN2C(=O)CCC2=O)cc1,"inconclusive: 0.708 µM [activator, single point]"
10,CCOc1cccc(NC(=O)C2CCCN(S(=O)(=O)c3ccc(OC)cc3)C2)c1 (stereo not given),"inconclusive: 20.6 µM [inhibitor, single point]"
11,c1ccc(-c2c3ccccc3nc3[nH]c4ccccc4c23)cc1,"inconclusive: 29.1 µM [inhibitor, single point]"
12,O=C(N/N=C/c1ccc[nH]1)c1cc(-c2cccs2)nc2ccccc12,"inconclusive: 6.31 µM [inhibitor, single point]"
13,CCCNC(=O)Nc1cc(C)on1,"inconclusive: 0.58 µM [activator, single point]"
14,COc1cccc(CNC(=O)Cc2ccc(-c3ccccc3)cc2)c1,"inconclusive: 35.5 µM [inhibitor, single point]"
15,CC1(C)CC(=O)c2c(oc3cc(O)c(O)cc23)C1,inactive
16,CSc1cc(-c2ccccc2)n(Cc2ccccc2Cl)c(=O)c1C#N,"inconclusive: 2.82 µM [inhibitor, full curve]"
17,O=C(NCc1cccc(Cl)c1)NCc1cccc(Cl)c1,"inconclusive: 14.1 µM [activator, partial curve, poor fit]"
18,CCCn1nc(NC(=O)C2CCCO2)c2cc3ccc(C)cc3nc21 (stereo not given),"inconclusive: 35.5 µM [inhibitor, partial curve, poor fit]"
19,CCC(C)(C)n1nnnc1C(c1ccc(OC)c(OC)c1)N1CCN(c2ccc(F)cc2)CC1 (stereo not given),"inconclusive: 17.8 µM [inhibitor, partial curve, poor fit]"
20,CN(C)c1ccc(CNC(=O)C(Cc2ccccc2)NS(=O)(=O)c2ccc3c(c2)oc(=O)n3C)cc1 (stereo not given),inactive
21,O=C(NCCc1ccccc1)c1ccccc1NC(=O)C1CCCO1 (stereo not given),"inconclusive: 14.1 µM [inhibitor, single point]"
22,CC(=O)c1ccc(NC(=O)CSc2ccc3nc(-c4ccccc4)cn3n2)cc1,"inconclusive: 2 µM [inhibitor, partial curve]"
